The labels stand for the following.
T1: GST-tagged mouse GlialCAM cytosolic tail (mouse) (UniProt Q640R3)
T1 sequence: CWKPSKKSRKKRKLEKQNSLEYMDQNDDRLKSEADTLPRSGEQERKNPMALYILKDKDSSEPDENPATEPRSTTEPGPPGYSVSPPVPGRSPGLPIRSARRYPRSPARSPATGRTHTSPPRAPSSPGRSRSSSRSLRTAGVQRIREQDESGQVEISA

B1: sodium-bicarbonate cotransporter Slc4a4 (protein, UniProt O88343 1-1079)
chain: MEDEAVLDRGASFLKHVCDEEEVEGHHTIYIGVHVPKSYRRRRRHKRKAGHKEKKEKERISENYSDKSDVENADESSSSILKPLISPAAERIRFILGEEDDSPAPPQLFTELDELLAVDGQEMEWKETARWIKFEEKVEQGGERWSKPHVATLSLHSLFELRTCMEKGSIMLDREASSLPQLVEMIADHQIETGLLKPDLKDKVTYTLLRKHRHQTKKSNLRSLADIGKTVSSASRMFSNPDNGSPAMTHRNLTSSSLNDISDKPEKDQLKNKFMKKLPRDAEASNVLVGEVDFLDTPFIAFVRLQQAVMLGALTEVPVPTRFLFILLGPKGKAKSYHEIGRAIATLMSDEVFHDIAYKAKDRHDLIAGIDEFLDEVIVLPPGEWDPTIRIEPPKSLPSSDKRKNMYSGGENVQMNGDTPHDGGHGGGGHGDCEELQRTGRFCGGLIKDIKRKAPFFASDFYDALNIQALSAILFIYLATVTNAITFGGLLGDATDNMQGVLESFLGTAVSGAIFCLFAGQPLTILSSTGPVLVFERLLFNFSKDHNFDYLEFRLWIGLWSAFMCLVLVATDASFLVQYFTRFTEEGFSSLISFIFIYDAFKKMIKLADYYPINSDFKVGYNTHFSCACLPPDPVNLSVSNDTTLAPEDLPTISSTDMYHNVTFDWAYLSKKECVKYGGKLVGNNCDFVPDITLMSFILFLGTYTSSMAMKKFKTSRYFPTTARKLISDFAIILSILIFCVIDALVGVDTPKLIVPSEFKPTSPNRGWFVPPFGGNPWWVCLAAAIPALLVTILIFMDQQITAVIVNRKEHKLKKGAGYHLDLFWVAILMVVCSFMALPWYVAATVISIAHIDSLKMETETSAPGEQPKFLGVREQRVTGTLVFILTGLSVFMAPILKFIPMPVLYGVFLYMGVASLNGVQFMDRLKLLLMPLKHQPDFIYLRHVPLRRVHLFTFLQVLCLALLWILKSTVAAIIFPVMILALVAVRKGMDYLFSQHDLSFLDDVIPEKDKKKKEDEKKKKKKKGSLDSDNDDSDCPYSEKVPSIKIPMDIMEQQPFLSDNKPLDRERSSTFLERHTSC
B2: phosphofructokinase muscle type PFKM (protein, UniProt P47857 1-780)
chain: MTHEEHHAAKTLGIGKAIAVLTSGGDAQGMNAAVRAVVRVGIFTGARVFFVHEGYQGLVDGGEHIREATWESVSMMLQLGGTVIGSARCKDFREREGRLRAAHNLVKRGITNLCVIGGDGSLTGADTFRSEWSDLLNDLQKDGKITAEEATKSSYLNIVGLVGSIDNDFCGTDMTIGTDSALHRIVEIVDAITTTAQSHQRTFVLEVMGRHCGYLALVTSLSCGADWVFIPECPPDDDWEEHLCRRLSETRTRGSRLNIIIVAEGAIDKNGKPITSEDIKNLVVKRLGYDTRVTVLGHVQRGGTPSAFDRILGSRMGVEAVMALLEGTPDTPACVVSLSGNQAVRLPLMECVQVTKDVTKAMDEKRFDEAIKLRGRSFMNNWEVYKLLAHVRPPVSKGGLHTVAVMNVGAPAAGMNAAVRSTVRIGLIQGNRVLVVHDGFEGLAKGQIEEAGWSYVGGWTGQGGSKLGTKRTLPKKNLEQISANITKFNIQGLVIIGGFEAYTGGLELMEGRKQFDELCIPFVVIPATVSNNVPGSDFSIGADTALNTICTTCDRIKQSAAGTKRRVFIIETMGGYCGYLATMAGLAAGADAAYIFEEPFTIRDLQVNVEHLVQKMKTTVKRGLVLRNEKCNENYTTDFIFNLYSEEGKGIFDSRKNVLGHMQQGGSPTPFDRNFATKMGAKAMNWMSGKIKESYRNGRIFANTPDSGCVLGMRKRALVFQPVTELKDQTDFEHRIPKEQWWLKLRPILKILAKYEIDLDTSDHAHLEHISRKRSGEAAV
B3: FARP1 (protein, UniProt F8VPU2 1-1048)
chain: MGEIEQKPTPASRLGAPENSGISTLERGQKPPPTPSGKLMTVKIQMLDDTQEAFEVPQRAPGKVLFDAVCNHLNLVEGDYFGLEFPDHRKIVVWLDLLKPIVKQIRRPKHVVVKFVVKFFPPDHTQLQEELTRYLFALQVKQDLAQGRLTCNDTSAALLISHIVQSEIGDFDEALDREHLAKNKYVPQQDALEDRIMEFHHSHVGQTPAESDFQLLEVARRLEMYGIRLHPAKDREGTKINLAVANTGILVFQGFTKINAFNWAKVRKLSFKRKRFLIKLRPDVNSSYQDTLEFLMAGRDFCKSFWKICVEHHAFFRLFEEPKPKPKPVLFSRGSSFRFSGRTQKQVLDYVKEGGHKKVQFERKHSKIHSTRSLVSQPTAPNSEVPKQSPQSASLTFGEGTESPGGQSCQQAKETKACTLELGPHQSPALPKSPPGSKAADGTTVVPPEEEEEEEGGKDGIRPSNPQPPQPSTGSLTGSPHLSELSINSQGGAAPANVTLSPNLSPDNKQASPLISPLLNDQACPRTDDEEEGRRKRFPTDKAYYIAKEVSTTERTYLKDLEVIASWFQSTVSKEDSMPEALKSLIFPNFEPLHKFHTNFLKEIEQRLALWEGRSNAHVRGDYQRIGDVMLKNIQGMKHLAAHLWKHSEALEALETSIKGSRRLEHFCRDFELQKVCYLPLNTFLLRPLHRLMHYKHVLERLCKHHPPNHADFRDCRAALAEITEMVAQLHGTMIKMENFQKLHELKKDLIGIDNLVTPGREFIRLGSLSKLSGKGLQQRMFFLFNDVLLYTSRGLTASNQFKVHGQLPLYGMTIEESEEEWGVPHCLTLRGQRQSIIVAASSRSEMEKWMEDIQMAIDLAEKSNGPTPELLASSPPDNKSPDEATAADQESEDDLSASRTSLERQAPHRGNTMVHVCWHRSTSVSMVDFSIAVENQLSGNLLRKFKNSNGWQKLWVVFTNFCLFFYKSHQDSHPLASLPLLGYSLTIPSESENIHKDYVFKLHFKSHVYYFRAESEYTFERWMEVIRSATSSASRAHILSHKESHLY

Results are given in words; binding and its absence hold for the method and conditions named. In cells and extracts the contact can be indirect. Here binding means that the protein was enriched with, or labelled near, the bait; the list need not be complete. Tags and fused reporters may be left off the sequences shown.

For the assay, the target named is T1, GST-tagged mouse GlialCAM cytosolic tail (mouse). Description: affinity purification with mass spectrometry.
Consider B1, for which the binding entry is given as “binds”. Regarding B2, the binding result is reported as “binds”. As for B3, the binding entry is “binds”.

Source of the values: publication doi:10.1101/2025.10.03.680331.
